PubChem BioAssay AID1259289 | Sanger Institute, 2017

Test: 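Find kinases whose loss adds to targeted drugs in killing bowel cancer cells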 (primary screen)
Cell system: human LS513 colorectal cancer cells
Reagents: siRNA pool against human genes
Challenge: anchor drug BYL719 at 1 µM, cetuximab at 5 µg/ml or trametinib at 10 nM, or DMSO vehicle alone; exposure time not given
Read-out: 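Cell survival as a fraction of the non-targeting pool, replicate means; robust z-score for silencing alone under DMSO; synergy score for each of BYL719, cetuximab and trametinib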
Reading the numbers: robust z-score, siRNA alone (DMSO): higher = more viable cells; strongly negative means essential; viability with DMSO vs control: higher = more viable cells; synergy score with BYL719: higher = stronger combined killing with BYL719; synergy score with cetuximab: higher = stronger combined killing with cetuximab; synergy score with trametinib: higher = stronger combined killing with trametinib
Active means: 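Called essential when silencing alone under DMSO gives a robust z-score below -3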
Calls: active = essential (knock-down alone); inactive = not essential
The deposit covers 794 reagents; shown is an unselected part. Of all reagents, 16 (2%) got an active call. 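Active marks cell loss from silencing alone; drug synergy shows only in the synergy scores, not the calls.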 Unmarked entries are inactive. The numbers tell different reagents against one gene apart. No viability above 1 is reported: the scale is capped. Reagent sequences are not shown. Not given: the amount of reagent, the time to read-out.

| Target gene | pool no. | robust z-score, siRNA alone (DMSO) | viability with DMSO vs control (fraction of control) | synergy score with BYL719 | synergy score with cetuximab | synergy score with trametinib |
| --- | --- | --- | --- | --- | --- | --- |
| RPS6KA6 (ribosomal protein S6 kinase A6) | 1 | 0.561 | 1 | 0.151 | 0.075 | 0.0335 |
| TAOK2 (TAO kinase 2) | 1 | 0.561 | 1 | -0.12 | -0.0287 | 0.0436 |
| GALK2 (galactokinase 2) | 1 | 0.155 | 0.942 | -0.0286 | 0.231 | 0.0657 |
| TPD52L3 (TPD52 like 3) | 1 | 0.561 | 1 | -0.134 | -0.0968 | 0.0337 |
| STK25 (serine/threonine kinase 25) | 1 | 0.561 | 1 | -0.00487 | 0.0152 | 0.0324 |
| STYK1 (STY kinase 1) | 1 | 0.561 | 1 | -0.0652 | -0.0535 | 0.0159 |
| GK2 (glycerol kinase 2) | 1 | -0.364 | 0.869 | -0.0716 | 0.0829 | 0.0114 |
| MLKL (mixed lineage kinase domain like pseudokinase) | 1 | 0.561 | 1 | -0.117 | -0.096 | -0.00374 |
| AK7 (adenylate kinase 7) | 1 | 0.264 | 0.958 | -0.0179 | -0.0406 | -0.185 |
| AK3 (adenylate kinase 3) | 1 | 0.561 | 1 | -0.0737 | -0.0968 | 0.0047 |
| IRAK2 (interleukin 1 receptor associated kinase 2) | 1 | 0.561 | 1 | -0.0867 | -0.0968 | 0.0171 |
| MYH10 (myosin heavy chain 10) | 1 | 0.454 | 0.985 | 0.055 | 0.082 | 0.064 |
| MAGI3 | 1 | 0.561 | 1 | -0.0779 | -0.0968 | -0.0131 |
| LMBR1 (limb development membrane protein 1) | 1 | 0.561 | 1 | -0.0258 | -0.0968 | -0.00437 |
| MPP1 (MAGUK p55 scaffold protein 1) | 1 | 0.336 | 0.968 | 0.118 | 0.0309 | 0.0606 |
| MAP2K4 (mitogen-activated protein kinase kinase 4) | 1 | 0.561 | 1 | 0.0455 | -0.00604 | -0.0365 |
| CDK9 (cyclin dependent kinase 9) | 1 | -0.0413 | 0.915 | -0.0768 | 0.112 | 0.026 |
| IGF2R (insulin like growth factor 2 receptor) | 1 | 0.561 | 1 | -0.0627 | 0.0168 | -0.0548 |
| ETNK2 (ethanolamine kinase 2) | 1 | -1.66 | 0.685 | -0.108 | -0.0789 | -0.0842 |
| FBXW7 (F-box and WD repeat domain containing 7) | 1 | 0.561 | 1 | -0.11 | -0.0968 | -0.00366 |
| PRKAR1B (protein kinase cAMP-dependent type I regulatory subunit beta) | 1 | -0.564 | 0.84 | 0.0762 | 0.14 | -0.0185 |
| ACO1 (aconitase 1) | 1 | -0.385 | 0.866 | 0.106 | -0.0771 | 0.00231 |
| PFKM (phosphofructokinase, muscle) | 1 | 0.561 | 1 | -0.0776 | 0.112 | 0.0243 |
| IDH2 (isocitrate dehydrogenase (NADP(+)) 2) | 1 | 0.561 | 1 | -0.00947 | -0.0968 | -0.0629 |
| FLT4 (fms related receptor tyrosine kinase 4) | 1 | 0.181 | 0.946 | 0.0332 | -0.0134 | -0.0566 |
| IP6K3 (inositol hexakisphosphate kinase 3) | 1 | -2.74 | 0.531 | -0.0272 | -0.0509 | -0.059 |
| ILK (integrin linked kinase) | 1 | 0.561 | 1 | -0.134 | -0.0968 | 0.0158 |
| ILK (integrin linked kinase) | 2 | -0.497 | 0.85 | 0.189 | 0.0504 | 0.0701 |
| NUP107 (nucleoporin 107) | 1 | -4.21 (active) | 0.323 | -0.0115 | 0.0124 | 0.00165 |
| CKM (creatine kinase, M-type) | 1 | 0.561 | 1 | -0.134 | -0.0968 | -0.0829 |
| NRBP1 (nuclear receptor binding protein 1) | 1 | -1.04 | 0.773 | -0.0192 | 0.0182 | -0.0755 |
| BRD4 (bromodomain containing 4) | 1 | 0.561 | 1 | 0.105 | 0.011 | 0.0149 |
| COMMD3 (COMM domain containing 3) | 1 | 0.561 | 1 | 0.00833 | 0.0966 | 0.0149 |
| GATA3 (GATA binding protein 3) | 1 | -1.02 | 0.775 | -0.109 | -0.0282 | -0.123 |
| COQ8B (coenzyme Q8B) | 1 | 0.561 | 1 | -0.08 | -0.0227 | 0.0464 |
| CREBBP (CREB binding lysine acetyltransferase) | 1 | -0.122 | 0.903 | -0.0383 | 0.0905 | -0.022 |
| CDKL4 (cyclin dependent kinase like 4) | 1 | 0.352 | 0.97 | 0.00646 | 0.142 | 0.0294 |
| MAP2K7 (mitogen-activated protein kinase kinase 7) | 1 | 0.561 | 1 | -0.0688 | 0.04 | 0.0428 |
| STRADA (STE20 related adaptor alpha) | 1 | -0.814 | 0.805 | 0.136 | 0.159 | -0.084 |
| RELA (RELA proto-oncogene, NF-kB subunit) | 1 | 0.509 | 0.993 | 0.0938 | -0.0114 | 0.0791 |
| IRAK4 (interleukin 1 receptor associated kinase 4) | 1 | 0.561 | 1 | 0.0246 | 0.0102 | 0.0201 |
| RFK (riboflavin kinase) | 1 | 0.561 | 1 | -0.134 | -0.0968 | 0.0169 |
| CSNK2B (casein kinase 2 beta) | 1 | 0.561 | 1 | -0.0263 | 0.0766 | -0.0362 |
| MED24 (mediator complex subunit 24) | 1 | 0.561 | 1 | -0.0565 | -0.0968 | -0.0462 |
| MAP4K1 (mitogen-activated protein kinase kinase kinase kinase 1) | 1 | -1.15 | 0.757 | 0.0206 | 0.0607 | -0.0601 |
| MSR1 (macrophage scavenger receptor 1) | 1 | -0.93 | 0.788 | -0.0579 | 0.162 | 0.0354 |
| STK32C (serine/threonine kinase 32C) | 1 | 0.561 | 1 | -0.134 | -0.0968 | 0.000864 |
| PIK3CD | 1 | 0.561 | 1 | -0.134 | -0.0968 | 0.00481 |
| EPHA5 (EPH receptor A5) | 1 | 0.561 | 1 | -0.0772 | -0.0968 | -0.00508 |
| PIK3CB | 1 | 0.205 | 0.949 | 0.0219 | 0.136 | 0.00631 |

Reagents listed so far marked active:
| Target gene | pool no. | robust z-score, siRNA alone (DMSO) | viability with DMSO vs control (fraction of control) | synergy score with BYL719 | synergy score with cetuximab | synergy score with trametinib |
| --- | --- | --- | --- | --- | --- | --- |
| NUP107 (nucleoporin 107) | 1 | -4.21 (active) | 0.323 | -0.0115 | 0.0124 | 0.00165 |
